{"source": "patent EP1060742A1", "about": "“INTERSTITIAL ADENOSINE LEVEL-ELEVATING AGENTS” (priority 1998, dated 1999)", "tested_on": "normal healthy golden hamsters (F1B strain)", "assay_type": "in vivo, hamster", "description": "Male cardiomyopathic Syrian hamsters (Bio 14.6 strain) aged 7 weeks were used. Male aged-matched normal healthy golden hamsters (F1B strain) were used as control animals. These hamsters were purchased from Biobreeders Inc. Throughout the test period, the animals were housed in stainless steel cage in a temperature (23 ± 1C° )controlled room where a daily light-dark cycle was maintained artificially at 12 hours intervals. The animals were fed with commercially available pellet (CE-2, CLEA Japan, Inc.) and provided adde libitum with feed pellets and water. […]\nBody weight was recorded on every Monday and Thursday after the administration of the test compound. […]\nBlood samples were collected before administration of the test compound, and 45 and 88 days after administration. […] Blood plasma was separated from the samples and plasma norepinephrine (NE) levels were measured using a catecholamine assay system.\nMyocardial tissue preparations were prepared 88 days after the administration was started. […] Weight of the hearts was measured and the hearts were fixed in a 10% buffered neutral formaldehyde solution. […] The preparations of the hearts so prepared were measured in area for regions of cardiac fibrosis, mineral deposition, myocardial necrosis, and macrophage infiltration, using an image analyzing system (Mac SCOPE Ver.2.1, Mitsuya Shoji). […]", "data": [{"compound": "COC(=O)C12C(O)C(C(=O)Cc3ccccn3)=NN1C(c1ccccc1)C=CC2c1ccccc1", "note": "(centres unmarked) [compound No.1, 2,5-diphenyl-7-hydroxy-6-methoxycarbonyl-8-(2-pyridyl)acetyl-1,9-diazabicyclo[4.3.0]-nona-3,8-dien]", "values": [{"measurement": "plasma NE level", "setting": "88 days after administration", "value": "had no effect"}, {"measurement": "relative heart weight", "setting": "day 88, oral", "value": "did not affect"}]}]}
